# Source: the supplement of paper PMC8728848
# The list shows a part of the results.
# Legend:
# Assay in all cases: glycan array binding signal (z-score within array); higher = stronger binding
# Details in all cases: glycan notation: IUPAC condensed, linker removed
# [1] = target: Gal(b1-4)GlcNAc(b1-3)Gal(b1-4)GlcNAc(b1-3)Gal(b1-4)GlcNAc
# In short: (§1)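 Glycan array data were curated from 3228 arrays in the Consortium for Functional Glycomics database and kept only where the protein sequence was available. Glycan names were converted to IUPAC-condensed notation, and columns mapping to the same glycan were averaged. The binding signal is a within-array Z-score, averaged across arrays of the same protein sequence at different concentrations or buffers and across linkers. Negative Z-scores can be read as non-binding.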
# [2] = target: Gal(b1-4)GlcNAc(b1-3)Gal(b1-4)GlcNAc(b1-3)Gal(b1-4)GlcNAc(b1-2)Man(a1-3)[Gal(b1-4)GlcNAc(b1-3)Gal(b1-4)GlcNAc(b1-3)Gal(b1-4)GlcNAc(b1-2)Man(a1-6)]Man(b1-4)GlcNAc(b1-4)GlcNAc
# In short: as §1
# [3] = target: Gal(b1-4)GlcNAc(b1-3)Gal(b1-4)GlcNAc(b1-3)Gal(b1-4)GlcNAc(b1-2)Man(a1-3)[Gal(b1-4)GlcNAc(b1-3)Gal(b1-4)GlcNAc(b1-3)Gal(b1-4)GlcNAc(b1-2)Man(a1-6)]Man(b1-4)GlcNAc(b1-4)[Fuc(a1-6)]GlcNAc
# In short: as §1
# [4] = target: Gal(b1-4)GlcNAc(b1-3)Gal(b1-4)GlcNAc(b1-3)Gal(b1-4)GlcNAc(b1-2)[Gal(b1-4)GlcNAc(b1-3)Gal(b1-4)GlcNAc(b1-3)Gal(b1-4)GlcNAc(b1-6)]Man(a1-6)[Gal(b1-4)GlcNAc(b1-3)Gal(b1-4)GlcNAc(b1-3)Gal(b1-4)GlcNAc(b1-2)Man(a1-3)]Man(b1-4)GlcNAc(b1-4)[Fuc(a1-6)]GlcNAc
# In short: as §1
# [5] = target: Gal(b1-4)GlcNAc(b1-3)Gal(b1-4)GlcNAc(b1-3)Gal(b1-4)GlcNAc(b1-3)Gal(b1-4)GlcNAc(b1-2)Man(a1-3)[Gal(b1-4)GlcNAc(b1-3)Gal(b1-4)GlcNAc(b1-3)Gal(b1-4)GlcNAc(b1-3)Gal(b1-4)GlcNAc(b1-2)Man(a1-6)]Man(b1-4)GlcNAc(b1-4)GlcNAc
# In short: as §1
# [6] = target: Gal(b1-4)GlcNAc(b1-3)Gal(b1-4)GlcNAc(b1-3)Gal(b1-4)GlcNAc(b1-3)Gal(b1-4)GlcNAc(b1-2)Man(a1-3)[Gal(b1-4)GlcNAc(b1-3)Gal(b1-4)GlcNAc(b1-3)Gal(b1-4)GlcNAc(b1-3)Gal(b1-4)GlcNAc(b1-2)Man(a1-6)]Man(b1-4)GlcNAc(b1-4)[Fuc(a1-6)]GlcNAc
# In short: as §1
# [7] = target: Gal(b1-4)GlcNAc(b1-3)Gal(b1-4)GlcNAc(b1-3)Gal(b1-4)GlcNAc(b1-3)Gal(b1-4)GlcNAc(b1-2)[Gal(b1-4)GlcNAc(b1-3)Gal(b1-4)GlcNAc(b1-3)Gal(b1-4)GlcNAc(b1-3)Gal(b1-4)GlcNAc(b1-6)]Man(a1-6)[Gal(b1-4)GlcNAc(b1-3)Gal(b1-4)GlcNAc(b1-3)Gal(b1-4)GlcNAc(b1-3)Gal(b1-4)GlcNAc(b1-2)Man(a1-3)]Man(b1-4)GlcNAc(b1-4)[Fuc(a1-6)]GlcNAc
# In short: as §1
# [8] = target: Gal(b1-4)GlcNAc(b1-3)Gal(b1-4)GlcNAc(b1-3)Gal(b1-4)GlcNAc(b1-3)Gal(b1-4)GlcNAc(b1-3)Gal(b1-4)GlcNAc(b1-2)Man(a1-3)[Gal(b1-4)GlcNAc(b1-3)Gal(b1-4)GlcNAc(b1-3)Gal(b1-4)GlcNAc(b1-3)Gal(b1-4)GlcNAc(b1-3)Gal(b1-4)GlcNAc(b1-2)Man(a1-6)]Man(b1-4)GlcNAc(b1-4)GlcNAc
# In short: as §1
# [9] = target: Gal(b1-4)GlcNAc(b1-3)Gal(b1-4)GlcNAc(b1-3)Gal(b1-4)GlcNAc(b1-3)Gal(b1-4)GlcNAc(b1-3)Gal(b1-4)GlcNAc(b1-2)Man(a1-3)[Gal(b1-4)GlcNAc(b1-3)Gal(b1-4)GlcNAc(b1-3)Gal(b1-4)GlcNAc(b1-3)Gal(b1-4)GlcNAc(b1-3)Gal(b1-4)GlcNAc(b1-2)Man(a1-6)]Man(b1-4)GlcNAc(b1-4)[Fuc(a1-6)]GlcNAc
# In short: as §1
# [10] = target: Gal(b1-4)GlcNAc(b1-3)Gal(b1-4)GlcNAc(b1-3)Gal(b1-4)GlcNAc(b1-3)Gal(b1-4)GlcNAc(b1-3)Gal(b1-4)GlcNAc(b1-2)[Gal(b1-4)GlcNAc(b1-3)Gal(b1-4)GlcNAc(b1-3)Gal(b1-4)GlcNAc(b1-3)Gal(b1-4)GlcNAc(b1-3)Gal(b1-4)GlcNAc(b1-6)]Man(a1-6)[Gal(b1-4)GlcNAc(b1-3)Gal(b1-4)GlcNAc(b1-3)Gal(b1-4)GlcNAc(b1-3)Gal(b1-4)GlcNAc(b1-3)Gal(b1-4)GlcNAc(b1-2)Man(a1-3)]Man(b1-4)GlcNAc(b1-4)[Fuc(a1-6)]GlcNAc
# In short: as §1
# [11] = target: Gal(b1-4)GlcNAc(b1-3)Gal(b1-4)GlcNAc(b1-3)Gal(b1-4)GlcNAc(b1-3)Gal(b1-4)GlcNAc(b1-3)Gal(b1-4)GlcNAc(b1-3)Gal(b1-4)GlcNAc(b1-2)Man(a1-3)[Gal(b1-4)GlcNAc(b1-3)Gal(b1-4)GlcNAc(b1-3)Gal(b1-4)GlcNAc(b1-3)Gal(b1-4)GlcNAc(b1-3)Gal(b1-4)GlcNAc(b1-3)Gal(b1-4)GlcNAc(b1-2)Man(a1-6)]Man(b1-4)GlcNAc(b1-4)GlcNAc
# In short: as §1
# [12] = target: Gal(b1-4)GlcNAc(b1-3)Gal(b1-4)GlcNAc(b1-3)GalNAc
# In short: as §1
# [13] = target: Gal(b1-4)GlcNAc(b1-3)Gal(b1-4)GlcNAc(b1-3)[Gal(b1-4)GlcNAc(b1-3)Gal(b1-4)GlcNAc(b1-6)]GalNAc
# In short: as §1
# [14] = target: Gal(b1-4)GlcNAc(b1-3)Gal(b1-4)GlcNAc(b1-6)[Gal(b1-3)]GalNAc
# In short: as §1
# [15] = target: Gal(b1-4)GlcNAc(b1-3)Gal(b1-4)[Fuc(a1-3)]GlcNAc(b1-3)Gal(b1-4)[Fuc(a1-3)]GlcNAc
# In short: as §1
# [16] = target: Gal(b1-4)GlcNAc(b1-3)GalNAc
# In short: as §1
# [17] = target: Gal(b1-4)GlcNAc(b1-3)[Fuc(a1-3)GlcNAc(b1-6)]Gal(b1-4)Glc
# In short: as §1
# [18] = target: Gal(b1-4)GlcNAc(b1-3)[Gal(b1-4)GlcNAc(b1-6)]Gal(b1-4)GlcNAc
# In short: as §1
# [19] = target: Gal(b1-4)GlcNAc(b1-3)[GlcNAc(b1-6)]Gal(b1-4)GlcNAc
# In short: as §1
binder,measurement,setting,value
Epa8 (Candida glabrata) (protein) MGSSHHHHHHSSGLVPRGSHMASSRALSDYPLGCSPLLGTKLTPGLSMELYEYPLDNHGIGPHCWDPAYLNPEYPRTGFESHKLIGTAQNVMSLNFEHRTQDCHVEFSNLPASFNFPDQITLTNFTMLLYGYFKPKESGRYRFHMEADDLLLMNLGAGNAFDCCAHEATRNNLGDYIAYDIWAGTRKDVEVFLEKEVFYPLRLFFNNRDGRAALDFSYYLNGATEPGTDIPELLFSLPDGESCPAYI,glycan array binding signal (z-score),[1],-0.62
same,glycan array binding signal (z-score),[2],1.07
same,glycan array binding signal (z-score),[3],0.507
same,glycan array binding signal (z-score),[4],0.718
same,glycan array binding signal (z-score),[5],0.099
same,glycan array binding signal (z-score),[6],0.578
same,glycan array binding signal (z-score),[7],0.638
same,glycan array binding signal (z-score),[8],0.357
same,glycan array binding signal (z-score),[9],1.2
same,glycan array binding signal (z-score),[10],0.265
same,glycan array binding signal (z-score),[11],1.64
same,glycan array binding signal (z-score),[12],1.13
same,glycan array binding signal (z-score),[13],0.839
same,glycan array binding signal (z-score),[14],0.028
same,glycan array binding signal (z-score),[15],-0.452
same,glycan array binding signal (z-score),[16],-0.402
same,glycan array binding signal (z-score),[17],-0.618
same,glycan array binding signal (z-score),[18],0.149
same,glycan array binding signal (z-score),[19],-1.46

# Some of the entries so far, with bars between the fields:
binder | measurement | setting | value
Epa8 (Candida glabrata) (protein) MGSSHHHHHHSSGLVPRGSHMASSRALSDYPLGCSPLLGTKLTPGLSMELYEYPLDNHGIGPHCWDPAYLNPEYPRTGFESHKLIGTAQNVMSLNFEHRTQDCHVEFSNLPASFNFPDQITLTNFTMLLYGYFKPKESGRYRFHMEADDLLLMNLGAGNAFDCCAHEATRNNLGDYIAYDIWAGTRKDVEVFLEKEVFYPLRLFFNNRDGRAALDFSYYLNGATEPGTDIPELLFSLPDGESCPAYI | glycan array binding signal (z-score) | [7] | 0.638
same | glycan array binding signal (z-score) | [15] | -0.452
